Results are given in words; binding and its absence hold for the method and conditions named. Binding seen in cells or lysates may run through a third protein. Some entries that bind do so weakly or less than the wild type. For part of these data: Tags and fused reporters may be left off the sequences shown.
Legend:
[1] = target: Procaspase 8, endogenous, in human cancer cell lysates (human) (UniProt Q14790); assay: co-immunoprecipitation from MIP/5FU and MiaPaca/CPT cell fractions
[2] = target: Procaspase 8, endogenous, in human cancer cell lysates (human) (UniProt Q14790); assay: co-immunoprecipitation (figure legend)
[3] = target: T1, SPARC (Secreted Protein, Acidic, Rich in Cysteines), His-tagged, stably expressed in MIP101 cells (MIP/SP) (human) (UniProt P09486); assay: co-immunoprecipitation
T1 sequence (looked up): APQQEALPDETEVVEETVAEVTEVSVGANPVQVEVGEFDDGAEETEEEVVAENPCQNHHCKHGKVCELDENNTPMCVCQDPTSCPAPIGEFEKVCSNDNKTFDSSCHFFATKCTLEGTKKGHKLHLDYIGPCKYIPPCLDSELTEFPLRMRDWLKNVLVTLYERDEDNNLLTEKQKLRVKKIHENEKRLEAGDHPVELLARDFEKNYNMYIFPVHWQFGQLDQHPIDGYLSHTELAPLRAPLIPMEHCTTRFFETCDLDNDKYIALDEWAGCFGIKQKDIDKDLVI

Amino acid sequences for entries named in this document (tags omitted).
UniProt Q14790: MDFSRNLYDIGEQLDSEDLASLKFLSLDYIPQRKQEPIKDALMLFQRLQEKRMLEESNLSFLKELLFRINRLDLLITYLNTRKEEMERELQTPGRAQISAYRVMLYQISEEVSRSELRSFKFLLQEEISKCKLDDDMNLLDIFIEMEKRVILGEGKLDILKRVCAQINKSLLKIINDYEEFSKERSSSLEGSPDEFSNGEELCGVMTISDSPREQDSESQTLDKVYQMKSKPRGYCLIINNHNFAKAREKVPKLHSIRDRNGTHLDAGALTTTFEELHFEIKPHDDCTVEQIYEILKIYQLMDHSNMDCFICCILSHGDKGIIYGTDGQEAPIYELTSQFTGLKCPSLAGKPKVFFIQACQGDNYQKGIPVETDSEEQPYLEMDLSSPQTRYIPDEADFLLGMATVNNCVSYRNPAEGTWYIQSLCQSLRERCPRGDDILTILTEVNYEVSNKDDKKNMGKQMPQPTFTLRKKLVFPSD
UniProt P10415: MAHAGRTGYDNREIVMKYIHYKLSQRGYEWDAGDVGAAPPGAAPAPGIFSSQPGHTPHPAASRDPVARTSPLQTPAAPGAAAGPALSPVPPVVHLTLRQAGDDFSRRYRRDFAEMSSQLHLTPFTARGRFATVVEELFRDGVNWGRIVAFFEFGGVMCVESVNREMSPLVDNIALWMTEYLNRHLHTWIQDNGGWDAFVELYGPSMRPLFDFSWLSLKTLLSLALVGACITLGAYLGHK

[4] = target: T2, SPARC, endogenous, in human cell lysates (HUVEC, HCT116) (human) (UniProt P09486); assay: reciprocal co-immunoprecipitation, HCT116 membrane fraction
T2 sequence (looked up): T1 sequence (looked up)

[5] = target: T2, SPARC, endogenous, in human cell lysates (HUVEC, HCT116) (human); assay: co-immunoprecipitation, membrane fraction (figure legend; FIG. 5B is HCT116)
[6] = target: T1, SPARC (Secreted Protein, Acidic, Rich in Cysteines), His-tagged, stably expressed in MIP101 cells (MIP/SP) (human); assay: reciprocal co-immunoprecipitation, MIP/SP membrane fraction
[7] = target: T1, SPARC (Secreted Protein, Acidic, Rich in Cysteines), His-tagged, stably expressed in MIP101 cells (MIP/SP) (human); assay: co-immunoprecipitation, membrane fraction (figure legend)
[8] = target: T2, SPARC, endogenous, in human cell lysates (HUVEC, HCT116) (human); assay: co-immunoprecipitation, HCT116 membrane fraction
[9] = target: Bcl-2, endogenous, in human cancer cell lysates (human) (UniProt P10415); assay: reciprocal co-immunoprecipitation from transfected MIP/5FU and MiaPaCa/CPT cells

Measured: binding

Bcl-2, endogenous, in human cancer cell lysates (from UniProt P10415 1-239)
binds: [1] | [2]

Procaspase 8, endogenous, in human cancer cell lysates (from UniProt Q14790 1-479) (enzyme)
not listed: [1] | [2] | [9]
binds: all other assays above

wild type procaspase 8 expressed from pcDNA3.1/myc-His (from UniProt Q14790 1-479) (enzyme)
binds: [9]

Reference: patent US20140363377A1
